According to patent publication US20110130374A1, “Small Pyrimidine Derivatives and Methods of Use Thereof” (BIOSEARCH(2007) LTD., priority 2009, published 2011):
Some entries share one result that the patent states for a list of compounds.

Tested on: A375 cells
Test: Cell viability, WST-1 reagent, A375 cells grown in two-dimension
Format: cell-based
Settings: WST-1, 72 h (FIG. 1B)
Experimental: Compound 1 (PRT7000467), Compound 2 (PRT7041128), and Compound 3 (PRT7081582) are not toxic to cells grown in two-dimension. A375 cells were cultured with RPMI and 10% FBS. The cells were treated with different concentrations of Compound 1 (PRT7000467) and Compound 2 (PRT7041128), then the viability of the cells was determined seventy-two hours post treatment using WST-1 reagent (Roche) (FIG. 1B)

Compound	LD50 (cell toxicity)
O=C(Nc1ccc(S(=O)(=O)Nc2ncccn2)cc1)/C(=C\c1cccs1)NC(=O)c1cccs1 [Compound 2]	higher than 150 μM
Cc1cc(S(=O)(=O)Nc2ncccn2)ccc1NC(=O)/C(=C\c1cccs1)NC(=O)c1cccs1 [Compound 3]	higher than 150 μM
Cc1cc(C)nc(NS(=O)(=O)c2ccc(NC(=O)/C(=C\c3cccs3)NC(=O)c3cccs3)cc2)n1 [Compound 1]	higher than 150 μM
